Results as given in publication PMC7949150 (The Journal of Biological Chemistry, 2021).

Test system: KARPAS-422 xenograft
Assay: Efficacy in KARPAS-422 xenograft model
Assay type: in vivo, mice
Conditions: 25 mg/kg QD PO

## CCN(c1cc(-c2ccc(CN3CCOCC3)cc2)cc(C(=O)NCc2c(C)cc(C)[nH]c2=O)c1C)C1CCOCC1 [Tazemetostat]
  reduction in tumor volume relative to vehicle: 49%
